These results are taken from the supplement of paper PMC5407854, “Inhibitor of ppGalNAc-T3-mediated O-glycosylation blocks cancer cell invasiveness and lowers FGF23 levels” (eLife, 2017).

The other results are listed elsewhere or left out. Small differences around the control level are noise.

The first experiment concerns ppGalNAc-T3 sensor. As to the kind of experiment: T3 sensor activation Q score (MG/GFP ratio z-score vs DMSO controls) (SD units); higher = more sensor activation (inhibition of ppGalNAc-T3 glycosylation). The note with it: HEK293 sensor cells; 10 µM; 6 h. Here is the method: (§1)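 Cells were treated with compound at 10 uM for 6 h, then MG/GFP ratio was read by flow cytometry (10,000 cells per well, duplicate wells). Q = (R - R_neg)/SD_neg relative to DMSO vehicle controls; the signal rises when the glycosyltransferase is inhibited.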
On to `CN(C)c1ccc(-c2nc3ccccc3o2)cc1`, for which the “T3 sensor activation Q score” value is -0.535.

Turning to `COc1ccc2nc(N=C(N)N)nc(C)c2c1`, the “T3 sensor activation Q score” value was -0.185.

For the compound `CNC(=O)Nc1ccc(C(=O)NC)cc1`, the “T3 sensor activation Q score” value turned out to be 0.63.

For the compound `O=C(NCCO)C12CC3CCC(CC(C3)C1)C2`, the “T3 sensor activation Q score” value turned out to be 0.3.

Take `O=C(c1ccccc1Br)N1CCCCC1CO` (stereo not drawn): the “T3 sensor activation Q score” value is -0.38.

Turning to `Cc1ccc2nc(NCCCO)[nH]c2c1`, the “T3 sensor activation Q score” value is -0.305.

As for `O=C(O)c1cccc(S(=O)(=O)N2CCCCCC2)c1`, the “T3 sensor activation Q score” value was -0.325.

With `COc1ccc(S(=O)(=O)N2CCCCC2)cc1OC`, the “T3 sensor activation Q score” value worked out at 0.67.

As to `O=[N+]([O-])c1ccc(-n2ccc3ccccc32)cc1`, the “T3 sensor activation Q score” value is -0.495.

Regarding `COc1ccc(Br)cc1CN1CCc2ccccc2C1`, the “T3 sensor activation Q score” value turned out to be 0.2.

Take `O=[N+]([O-])c1ccc(CNc2ccc(F)cc2)s1`: the “T3 sensor activation Q score” value turned out to be 0.37.

With `CC(=O)Nc1cccc(NC(=O)C(Cl)Cl)c1`, the “T3 sensor activation Q score” value amounted to 0.56.

As for `CCN(CC)/C(=C/C(=O)c1cccc([N+](=O)[O-])c1)c1ccccc1`, the “T3 sensor activation Q score” value is -0.42.

Take `O=S(=O)(Nc1ccccc1Cl)c1ccc(F)cc1`: the “T3 sensor activation Q score” value came to 0.055.

As to `Cc1cc(NN)nc(-c2ccccc2O)n1`, the “T3 sensor activation Q score” value was -0.72.

`Brc1ccccc1CN1CCc2ccccc2C1`: the “T3 sensor activation Q score” value was -0.31.

As for `CN(C)c1ccc(-c2ccncc2)cc1`, the “T3 sensor activation Q score” value was -0.025.

Turning to `COc1cc(C)c(CN2CCc3ccccc3C2)cc1C`, the “T3 sensor activation Q score” value is -0.31.

As for `Nc1ccccc1-c1nc2ccccc2[nH]1`, the “T3 sensor activation Q score” value was 0.6.

In the case of `CN(C)c1ccc(/C=C/CN2CCN(c3ccccc3F)CC2)cc1`, the “T3 sensor activation Q score” value was determined as 0.2.

For the compound `CCc1nnc(NC(=O)C2CCCCC2)s1`, the “T3 sensor activation Q score” value is -0.31.

`CCN(CC)C(=O)C1CCCN(Cc2ccc(C)cc2)C1` (stereo not drawn): the “T3 sensor activation Q score” value is -0.205.

Regarding `CC(=O)c1ccc(N2CCN(C(=O)c3ccccc3F)CC2)c(F)c1`, the “T3 sensor activation Q score” value was found to be 1.08.

In the case of `CC(=O)NC(CC(=O)c1ccc(Cl)cc1Cl)C(Cl)(Cl)Cl` (stereo not drawn), the “T3 sensor activation Q score” value was -0.345.

For `Cc1cccc(N2C(=O)CC(N3CCCCC3)C2=O)c1` (stereo not drawn), the “T3 sensor activation Q score” value was 1.3.

For the compound `CCOc1ccccc1N1CCN(Cc2ccc(N(C)C)cc2)CC1`, the “T3 sensor activation Q score” value is 0.54.

With `Nc1cccc(-c2nc3ccccc3s2)c1`, the “T3 sensor activation Q score” value was 0.575.

Turning to `c1ccc(N2CCN(Cc3ccco3)CC2)cc1`, the “T3 sensor activation Q score” value was -0.25.

In the case of `CC1(C)CC(=O)C=C(NCC2CCNCC2)C1`, the “T3 sensor activation Q score” value is -0.05.

For the compound `CCc1ccccc1NS(=O)(=O)c1ccc(Cl)cc1`, the “T3 sensor activation Q score” value was -0.635.

Consider `CCC1(CC)C(=O)N=C(N)NC1=O`, for which the “T3 sensor activation Q score” value was determined as 0.7.

`Cc1ccc2nc(-c3ccc([N+](=O)[O-])cc3)cn2c1`: the “T3 sensor activation Q score” value stood at 0.75.

For the compound `COc1ccc(CN2CCSCC2)c(C)c1C`, the “T3 sensor activation Q score” value is 0.285.

As to `CCOc1ccccc1CN1CCc2ccccc2C1`, the “T3 sensor activation Q score” value came out at 0.34.

As for `CC1CCCC(C)N1C(=O)Nc1ccccc1` (stereo not drawn), the “T3 sensor activation Q score” value was -0.495.

For the compound `CC(C)c1ccc(NC(=O)c2ccco2)cc1`, the “T3 sensor activation Q score” value is -0.765.

As to `COc1ccccc1-c1ncnn1-c1cccc(Cl)c1C`, the “T3 sensor activation Q score” value is -0.63.

In the case of `CCCCc1c(C(=O)O)cc(C)cc1C(=O)O`, the “T3 sensor activation Q score” value was 2.

Consider `COc1ccc(OC)c(CN2CCN(c3ccc(C(C)=O)cc3)CC2)c1`, for which the “T3 sensor activation Q score” value was 0.58.

The test system of a further experiment is ppGalNAc-T2 sensor. As to the kind of experiment: T2 sensor activation Q score (MG/GFP ratio z-score vs DMSO controls) (SD units); higher = more sensor activation (inhibition of ppGalNAc-T2 glycosylation). The note with it: HEK293 sensor cells; 10 µM; 6 h. Here is the method:
as §1
As for `CN(C)c1ccc(-c2nc3ccccc3o2)cc1`, the “T2 sensor activation Q score” value was -0.85.

For `COc1ccc2nc(N=C(N)N)nc(C)c2c1`, the “T2 sensor activation Q score” value was -0.075.

Take `CNC(=O)Nc1ccc(C(=O)NC)cc1`: the “T2 sensor activation Q score” value is 0.075.

As for `O=C(NCCO)C12CC3CCC(CC(C3)C1)C2`, the “T2 sensor activation Q score” value amounted to 0.65.

As for `O=C(c1ccccc1Br)N1CCCCC1CO` (stereo not drawn), the “T2 sensor activation Q score” value was 0.94.

`Cc1ccc2nc(NCCCO)[nH]c2c1`: the “T2 sensor activation Q score” value was determined as 1.

As to `O=C(O)c1cccc(S(=O)(=O)N2CCCCCC2)c1`, the “T2 sensor activation Q score” value was 1.29.

As to `COc1ccc(S(=O)(=O)N2CCCCC2)cc1OC`, the “T2 sensor activation Q score” value was -0.335.

`O=[N+]([O-])c1ccc(-n2ccc3ccccc32)cc1`: the “T2 sensor activation Q score” value worked out at 0.52.

On to `COc1ccc(Br)cc1CN1CCc2ccccc2C1`, for which the “T2 sensor activation Q score” value amounted to 1.67.

As for `O=[N+]([O-])c1ccc(CNc2ccc(F)cc2)s1`, the “T2 sensor activation Q score” value stood at 0.2.

Regarding `CC(=O)Nc1cccc(NC(=O)C(Cl)Cl)c1`, the “T2 sensor activation Q score” value was found to be 0.025.

With `CCN(CC)/C(=C/C(=O)c1cccc([N+](=O)[O-])c1)c1ccccc1`, the “T2 sensor activation Q score” value amounted to 1.1.

As for `O=S(=O)(Nc1ccccc1Cl)c1ccc(F)cc1`, the “T2 sensor activation Q score” value was -0.665.

On to `Cc1cc(NN)nc(-c2ccccc2O)n1`, for which the “T2 sensor activation Q score” value was found to be 1.58.

As to `Brc1ccccc1CN1CCc2ccccc2C1`, the “T2 sensor activation Q score” value came out at 0.725.

`CN(C)c1ccc(-c2ccncc2)cc1`: the “T2 sensor activation Q score” value is -0.835.

Turning to `COc1cc(C)c(CN2CCc3ccccc3C2)cc1C`, the “T2 sensor activation Q score” value is 0.135.

On to `Nc1ccccc1-c1nc2ccccc2[nH]1`, for which the “T2 sensor activation Q score” value is -0.36.

For `CN(C)c1ccc(/C=C/CN2CCN(c3ccccc3F)CC2)cc1`, the “T2 sensor activation Q score” value came out at 1.06.

`CCc1nnc(NC(=O)C2CCCCC2)s1`: the “T2 sensor activation Q score” value is -0.015.

Turning to `CCN(CC)C(=O)C1CCCN(Cc2ccc(C)cc2)C1` (stereo not drawn), the “T2 sensor activation Q score” value was -0.09.

Regarding `CC(=O)c1ccc(N2CCN(C(=O)c3ccccc3F)CC2)c(F)c1`, the “T2 sensor activation Q score” value is -0.285.

In the case of `CC(=O)NC(CC(=O)c1ccc(Cl)cc1Cl)C(Cl)(Cl)Cl` (stereo not drawn), the “T2 sensor activation Q score” value was 0.35.

Consider `Cc1cccc(N2C(=O)CC(N3CCCCC3)C2=O)c1` (stereo not drawn), for which the “T2 sensor activation Q score” value was -0.47.

Turning to `CCOc1ccccc1N1CCN(Cc2ccc(N(C)C)cc2)CC1`, the “T2 sensor activation Q score” value was determined as 0.33.

On to `Nc1cccc(-c2nc3ccccc3s2)c1`, for which the “T2 sensor activation Q score” value was -1.04.

Consider `c1ccc(N2CCN(Cc3ccco3)CC2)cc1`, for which the “T2 sensor activation Q score” value is -1.16.

For the compound `CC1(C)CC(=O)C=C(NCC2CCNCC2)C1`, the “T2 sensor activation Q score” value was -0.465.

Take `CCc1ccccc1NS(=O)(=O)c1ccc(Cl)cc1`: the “T2 sensor activation Q score” value was -0.605.

With `CCC1(CC)C(=O)N=C(N)NC1=O`, the “T2 sensor activation Q score” value is -1.67.

As for `Cc1ccc2nc(-c3ccc([N+](=O)[O-])cc3)cn2c1`, the “T2 sensor activation Q score” value is -0.195.

On to `COc1ccc(CN2CCSCC2)c(C)c1C`, for which the “T2 sensor activation Q score” value was -0.67.

Consider `CCOc1ccccc1CN1CCc2ccccc2C1`, for which the “T2 sensor activation Q score” value turned out to be 0.795.

On to `CC1CCCC(C)N1C(=O)Nc1ccccc1` (stereo not drawn), for which the “T2 sensor activation Q score” value stood at 0.35.

Turning to `CC(C)c1ccc(NC(=O)c2ccco2)cc1`, the “T2 sensor activation Q score” value is -1.11.

As for `COc1ccccc1-c1ncnn1-c1cccc(Cl)c1C`, the “T2 sensor activation Q score” value amounted to 1.01.

For the compound `CCCCc1c(C(=O)O)cc(C)cc1C(=O)O`, the “T2 sensor activation Q score” value was determined as 1.46.

Turning to `COc1ccc(OC)c(CN2CCN(c3ccc(C(C)=O)cc3)CC2)c1`, the “T2 sensor activation Q score” value was -0.745.
